Measured values published in paper PMC12421383, “Autophosphorylation of conserved yeast and human casein kinase 1 isozymes regulates Elongator-dependent tRNA modifications” (Nucleic Acids Research, 2025).
Results are given in words; binding and its absence hold for the method and conditions named. A result given as binding can be weak or reduced; the word gives no strength.

Biological target: GST-Elp1 N-terminal region (construct of Fig. 2F) (Saccharomyces cerevisiae (budding yeast))
Experiment: pull-down; 20 μg GST-tagged bait mixed with equimolar Hrr25 variant, GST Sepharose 4B, 1 h at 4°C; 20 mM Tris pH 7.5, 150 mM NaCl, 0.5% Tween 20, 2 mM DTT, 2 mM MgCl2; three washes; SDS-PAGE and WB with Hrr25-specific antibodies; both purified

- binding: binds weakly
B1: full-length (FL) yeast Hrr25, nonphosphorylated (enzyme, Saccharomyces cerevisiae (budding yeast), UniProt P29295 1-494, looked up)
chain: MDLRVGRKFRIGRKIGSGSFGDIYHGTNLISGEEVAIKLESIRSRHPQLDYESRVYRYLSGGVGIPFIRWFGREGEYNAMVIDLLGPSLEDLFNYCHRRFSFKTVIMLALQMFCRIQYIHGRSFIHRDIKPDNFLMGVGRRGSTVHVIDFGLSKKYRDFNTHRHIPYRENKSLTGTARYASVNTHLGIEQSRRDDLESLGYVLIYFCKGSLPWQGLKATTKKQKYDRIMEKKLNVSVETLCSGLPLEFQEYMAYCKNLKFDEKPDYLFLARLFKDLSIKLEYHNDHLFDWTMLRYTKAMVEKQRDLLIEKGDLNANSNAASASNSTDNKSETFNKIKLLAMKKFPTHFHYYKNEDKHNPSPEEIKQQTILNNNAASSLPEELLNALDKGMENLRQQQPQQQVQSSQPQPQPQQLQQQPNGQRPNYYPEPLLQQQQRDSQEQQQQVPMATTRATQYPPQINSNNFNTNQASVPPQMRSNPQQPPQDKPAGQSIWL
notes: cloned into pFastBacHT A with a TEV cleavage site after the tag; also called FL Hrr25; Hrr25 WT; source: Trichoplusia ni High Five cells, purified (NiNTA, gel filtration)
